In US20230134782A1, “TREATMENT OF SKIN CONDITIONS USING HIGH KRAFFT TEMPERATURE ANIONIC SURFACTANTS” (ARCUTIS BIOTHERAPEUTICS, INC., priority 2020, published 2023):
For at least one compound, name, drawing or mass did not settle the structure.

Assay: Krafft temperature determination in distilled water (water bath, dissolution and frothing on shaking)
Format: physicochemical
Conditions: aqueous solution in distilled water: 0.012% ceteth-10 phosphate, 0.017% dicetyl phosphate, 0.014% sodium cetostearyl sulfate
Experimental: 0.0012 grams of ceteth-10 phosphate (Moravek Lot 671-144-000-A-20190821-JHO) was weighed into a 20 mL glass scintillation vial. 10.0113 grams of distilled water was added to the scintillation vial and the vial was tightly capped and placed in a water bath. […] The surfactant remained as waxy particles sedimented on the bottom of the vial. After equilibration at 53.0° C. for 435 minutes, ceteth-10 phosphate had dissolved and the sample frothed when shaken. The Krafft temperature of a 0.012% ceteth-10 phosphate aqueous solution was determined to be 53.0° C.
0.0019 grams of dicetyl phosphate (Sigma dihexadecyl phosphate lot STBH2863) was weighed into a 20 mL glass scintillation vial. 11.2262 grams of distilled water was added to the scintillation vial and the vial was tightly capped and placed in a water bath. […] After equilibration at 58.0° C. for 450 minutes, dicetyl phosphate had dissolved and the sample frothed when shaken. The Krafft temperature of a 0.017% dicetyl phosphate aqueous solution was determined to be 58.0° C. 0.0024 grams of sodium cetostearyl sulfate (BASF Lanette E Granules Lot 0021826181) was weighed into a 20 mL glass scintillation vial. 17.0763 grams of distilled water was added to the scintillation vial and the vial was tightly capped and placed in a water bath. […] After equilibrating at 40.0° C. for 805 minutes the sodium cetostearyl sulfate had not dissolved and the sample slightly frothed when vigorously shaken. After equilibration at 42.5° C. for 365 minutes, sodium cetostearyl sulfate had dissolved and the sample frothed when shaken. The Krafft temperature of a 0.014% sodium cetostearyl sulfate aqueous solution was determined to be 41.0° C.

With CCCCCCCCCCCCCCCCOP(=O)(O)OCCCCCCCCCCCCCCCC [Dicetyl phosphate, dicetyl phosphate] the “Krafft Temperature” value was 58 °C, the “Krafft Temperature” value (listed as dicethyl phosphate) was 58 °C and the “Krafft Temperature” value (listed as dicetyl phosphate) was 58.0 °C.
